SMILES strings stand for the structures.

Here are results for one molecule from publication PMC11292196 (Cancer Research, 2024).

This experiment concerns KARPAS-422 cells. Put plainly: cells. It counts as cell-based. Particulars: Homo sapiens, KARPAS-422, read-out: IC50, KARPAS-422 cell proliferation.

Turning to `CCN(c1cc(-c2ccc(CN3CCOCC3)cc2)cc(C(=O)NCc2c(C)cc(C)[nH]c2=O)c1C)C1CCOCC1` [Tazemetostat], the IC50 came out at 322 nM.
